PubChem BioAssay AID652243 | Drosophila RNAi Screening Center, 2013

- Aim: 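Fly genes required for human androgen receptor driven transcription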 (primary screen)
- Cell system: Drosophila S2R+ cells
- Reagent: long dsRNA against Drosophila genes
- Timing: 72 h (48 h, then 24 h hormone)
- Challenge: synthetic androgen R1881 at 10 nM for 24 h
- Measured: 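Per-well raw luminescence of the androgen-driven firefly reporter and of the Renilla control, two replicates each, without normalisation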
- Scale: firefly reporter light: higher = more light from androgen-responsive reporter; Renilla control light: higher = more constitutive control signal (cell number, transfection)
- Hit rule: 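Across duplicate plates, a knock-down whose log firefly/Renilla ratio shifted a set fold down or up from the GFP/LacZ control mean was a hit; the downward cut appears as both 1.5 and 3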
- Calls: active = hit: reporter lowered or raised; inactive = no hit
The deposit covers about 24,000 reagents; shown is a random part of those with a known target gene and a result. Over the whole deposit, 246 (1%) were called active. 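Plates not normalised; calls are printed but the firefly/Renilla ratio behind them is not deposited; fold cut for lowering reported inconsistently.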 The raw values are shown without normalisation. Not stated in the record: the amount of reagent.

Es2 [DRSC18663] — firefly reporter light, replicate 1: 1.02e5; firefly reporter light, replicate 2: 1.22e5; Renilla control light, replicate 1: 5.42e5; Renilla control light, replicate 2: 6.02e5; call: inactive
Es2 [DRSC27829] — firefly reporter light, replicate 1: 2.42e5; firefly reporter light, replicate 2: 1.84e5; Renilla control light, replicate 1: 6.07e5; Renilla control light, replicate 2: 8.01e5; call: inactive
CG7546 [DRSC08885] — firefly reporter light, replicate 1: 2.46e5; firefly reporter light, replicate 2: 1.72e5; Renilla control light, replicate 1: 5.45e5; Renilla control light, replicate 2: 5.77e5; call: inactive
CG7546 [DRSC10871] — firefly reporter light, replicate 1: 2.56e5; firefly reporter light, replicate 2: 2.73e5; Renilla control light, replicate 1: 2.39e6; Renilla control light, replicate 2: 2.30e6; call: inactive
CG7546 [DRSC22148] — firefly reporter light, replicate 1: 8.49e5; firefly reporter light, replicate 2: 9.40e5; Renilla control light, replicate 1: 2.07e6; Renilla control light, replicate 2: 1.91e6; call: inactive
nenya [DRSC13838] — firefly reporter light, replicate 1: 68191; firefly reporter light, replicate 2: 88440; Renilla control light, replicate 1: 2.58e5; Renilla control light, replicate 2: 2.12e5; call: inactive
Nedd4 [DRSC11234] — firefly reporter light, replicate 1: 1.51e5; firefly reporter light, replicate 2: 1.81e5; Renilla control light, replicate 1: 1.38e6; Renilla control light, replicate 2: 2.34e6; call: inactive
Nedd4 [DRSC21548] — firefly reporter light, replicate 1: 7.97e5; firefly reporter light, replicate 2: 5.54e5; Renilla control light, replicate 1: 2.74e6; Renilla control light, replicate 2: 1.92e6; call: inactive
Nedd4 [DRSC26365] — firefly reporter light, replicate 1: 4.53e5; firefly reporter light, replicate 2: 3.42e5; Renilla control light, replicate 1: 5.47e5; Renilla control light, replicate 2: 5.14e5; call: inactive
CG3679 [DRSC19346] — firefly reporter light, replicate 1: 1.24e5; firefly reporter light, replicate 2: 1.17e5; Renilla control light, replicate 1: 7.88e5; Renilla control light, replicate 2: 8.58e5; call: inactive
CG3679 [DRSC25833] — firefly reporter light, replicate 1: 2.53e5; firefly reporter light, replicate 2: 3.87e5; Renilla control light, replicate 1: 9.23e5; Renilla control light, replicate 2: 8.28e5; call: inactive
CG7326 [DRSC20037] — firefly reporter light, replicate 1: 2.87e5; firefly reporter light, replicate 2: 96566; Renilla control light, replicate 1: 1.08e6; Renilla control light, replicate 2: 4.31e5; call: inactive
CG3457 [DRSC18509] — firefly reporter light, replicate 1: 1.12e5; firefly reporter light, replicate 2: 76876; Renilla control light, replicate 1: 6.72e5; Renilla control light, replicate 2: 4.45e5; call: inactive
CG3457 [DRSC26458] — firefly reporter light, replicate 1: 3.54e5; firefly reporter light, replicate 2: 3.13e5; Renilla control light, replicate 1: 6.67e5; Renilla control light, replicate 2: 8.48e5; call: inactive
CG14326 [DRSC14805] — firefly reporter light, replicate 1: 77738; firefly reporter light, replicate 2: 63608; Renilla control light, replicate 1: 1.91e6; Renilla control light, replicate 2: 1.35e6; call: inactive
CG14326 [DRSC28069] — firefly reporter light, replicate 1: 4.95e5; firefly reporter light, replicate 2: 2.86e5; Renilla control light, replicate 1: 1.24e6; Renilla control light, replicate 2: 1.03e6; call: inactive
Gyf [DRSC17202] — firefly reporter light, replicate 1: 38314; firefly reporter light, replicate 2: 44045; Renilla control light, replicate 1: 4.11e5; Renilla control light, replicate 2: 3.52e5; call: inactive
Gyf [DRSC28907] — firefly reporter light, replicate 1: 4.27e5; firefly reporter light, replicate 2: 4.23e5; Renilla control light, replicate 1: 7.97e5; Renilla control light, replicate 2: 9.91e5; call: inactive
Su(z)3 (retired record) [DRSC22970] — firefly reporter light, replicate 1: 7.33e5; firefly reporter light, replicate 2: 1.05e6; Renilla control light, replicate 1: 1.77e6; Renilla control light, replicate 2: 1.87e6; call: inactive
Cse1 [DRSC03287] — firefly reporter light, replicate 1: 4.08e5; firefly reporter light, replicate 2: 5.80e5; Renilla control light, replicate 1: 1.33e6; Renilla control light, replicate 2: 1.72e6; call: inactive
Cse1 [DRSC26857] — firefly reporter light, replicate 1: 3.07e5; firefly reporter light, replicate 2: 2.58e5; Renilla control light, replicate 1: 2.61e5; Renilla control light, replicate 2: 4.41e5; call: inactive
CG32483 [DRSC07902] — firefly reporter light, replicate 1: 1.79e5; firefly reporter light, replicate 2: 1.46e5; Renilla control light, replicate 1: 1.78e5; Renilla control light, replicate 2: 2.96e5; call: inactive
CG30394 [DRSC04074] — firefly reporter light, replicate 1: 2.70e5; firefly reporter light, replicate 2: 2.85e5; Renilla control light, replicate 1: 1.88e6; Renilla control light, replicate 2: 1.80e6; call: inactive
CG30394 [DRSC04260] — firefly reporter light, replicate 1: 3.02e5; firefly reporter light, replicate 2: 3.37e5; Renilla control light, replicate 1: 1.12e6; Renilla control light, replicate 2: 1.38e6; call: inactive
Pect [DRSC02867] — firefly reporter light, replicate 1: 5.84e5; firefly reporter light, replicate 2: 5.96e5; Renilla control light, replicate 1: 1.15e6; Renilla control light, replicate 2: 1.69e6; call: inactive
Pect [DRSC02868] — firefly reporter light, replicate 1: 2.47e5; firefly reporter light, replicate 2: 2.18e5; Renilla control light, replicate 1: 1.19e6; Renilla control light, replicate 2: 1.67e6; call: inactive
Usp20-33 [DRSC07196] — firefly reporter light, replicate 1: 1.14e6; firefly reporter light, replicate 2: 1.01e6; Renilla control light, replicate 1: 2.75e6; Renilla control light, replicate 2: 2.16e6; call: inactive

Only “firefly reporter light, replicate 2” (3 entries from above):
CG7326 [DRSC20037]: 96566
CG3457 [DRSC18509]: 76876
CG3457 [DRSC26458]: 3.13e5
